This is one part of the list. These are further read-outs of the screen, such as a control signal, another cell line or another target. No call is given for them. Most of these compounds were active or inconclusive in the main read-out, so they are no random draw. The note in brackets gives the kind of curve behind each potency; many fits are weak.

The assay can be described thus: qHTS Assay for Lipid Storage Modulators in Drosophila S3 Cells.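 As to cell number change: cells counted by Cell Tracker Red CMTPX staining in the red channel.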 Conditions: BODIPY lipid droplet fluorescence, 18-24 h; for cell number change: measured here: cell count max response, cells fed with added oleic acid. The method, boiled down:
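Laser-scanning cytometry quantifies lipid droplet accumulation (500–530 nm total intensity; droplet/cell object ratio) in oleic acid-fed (400 uM added) Drosophila S3 cells treated with a concentration series. 20 uM Triacsin C defined 100% inhibition.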

The mark [1] stands for this setting: measured here: cell number channel AC50, cells fed with added oleic acid.
Setting [2] is: measured here: lipid fluorescence (Fed channel) AC50, cells fed with added oleic acid.

In the case of `CC1=C(C#N)C(c2cn(-c3ccccc3)nc2-c2cccs2)C(C#N)=C(C)N1`, the cell number change was -42.3%. Moreover, the AC50 (as a rule, the concentration giving half of the maximal activity seen) under setting [1] is 0.00411 µM [falling, full curve, poor fit]. In the case of `CCc1ccc(C(=O)c2cncc(Br)c2)cc1`, the cell number change was -16.8%. In addition, the AC50 under setting [2] was 16.4 µM [rising, partial curve]. As for `COc1cc2c(cc1OC)CN(C(=O)C(C)(C)C)CC2`, the cell number change was -6.09%. Same read-out and setting: for `Cn1ncc2cc(NC(N)=S)ccc21` the value was 40.2%. Regarding `COc1ccc(CCC(C)Nc2cccc(F)c2)cc1` (configuration not stated), the cell number change was -6.97%. For the same compound, the AC50 under setting [1] is 0.651 µM [falling, full curve]. The AC50 under setting [2] was 0.92 µM [falling, full curve]. `CC(C)CCC(=O)N1CCOC1=O`: the cell number change was found to be 36.9%. For the same compound, the AC50 under setting [1] is 13 µM [rising, partial curve, poor fit]. The AC50 under setting [2] is 29.1 µM [rising, single point]. As for `CSCCC(NC(=O)c1ccc(Br)cc1)C(=O)O` (configuration not stated), the cell number change was 29.8%. Under setting [2], the AC50 is 29.1 µM [rising, single point]. With `CCOc1ccc(S(=O)(=O)N2CCC(C(=O)NCCN3CCOCC3)CC2)cc1C`, the cell number change was 9.21%. In addition, under setting [2], the AC50 was 3.55 µM [falling, full curve, poor fit].

For the compound `Cc1ccc(C(=O)OCC(=O)c2ccc(CC(=O)N3CCOCC3)s2)c(C)c1`, the cell number change is -12.9%. As to `CCCNC(=O)NC(=O)CN1C(=O)NC(C)(c2ccc3ccccc3c2)C1=O` (configuration not stated), the cell number change was -6.67%.

Regarding `CN1C2C=C3C(C#N)=C(N)C(C#N)(C#N)[C@@H](c4ccsc4)[C@@H]3C1CC2` (some centres not stated), the cell number change was -5.17%. For the compound `O=C(OCC(=O)c1ccc[nH]1)c1ccccc1`, the cell number change is -5.41%. Also, the AC50 under setting [1] was 1.64 µM [rising, partial curve].

With `CCOC(=O)/C(=N\Nc1ccccc1[N+](=O)[O-])c1csc(Nc2ccccc2)n1`, the cell number change is -96.1%. In addition, under setting [1], the AC50 is 18.4 µM [falling, partial curve]. The AC50 under setting [2] was 18.4 µM [falling, partial curve]. `CSc1ccc(C(=S)N2CCN(C(c3ccccc3)c3ccccc3)CC2)cc1`: the cell number change amounted to 20.1%. Further, under setting [2], the AC50 is 0.92 µM [rising, full curve]. In the case of `COCCSc1ccccc1C(=O)Nc1cc([N+](=O)[O-])ccc1OC`, the cell number change was 4.46%. For the same compound, the AC50 under setting [2] is 0.103 µM [falling, full curve, poor fit].

On to `O=C1CC(C(=O)N2CCOCC2)C2(CCCC2)O1` (configuration not stated), for which the cell number change was -122%. For the same compound, under setting [1], the AC50 is 20.6 µM [falling, partial curve]. For the same compound, the AC50 under setting [2] was 4.61 µM [falling, full curve]. In the case of `CSc1nncc(-c2ccccc2)n1`, the cell number change was -18.2%. Also, the AC50 under setting [2] was 0.82 µM [falling, partial curve, poor fit]. On to `CCOC(=O)CCNC(=O)CCNC(=O)C(c1ccccc1)c1ccccc1`, for which the cell number change came out at 20.5%. Regarding `COC(=O)/C=C/c1ccccc1CN1[C@@H](CC(=O)OC)c2ccccc2S1(=O)=O`, the cell number change amounted to 3.56%. Further, the AC50 under setting [2] is 29.1 µM [rising, single point]. In the case of `NS(=O)(=O)c1ccc(CCNC(=O)CN2CCCCCC2)cc1`, the cell number change was -34.7%. In the case of `CN1/C(=C/C=N/n2cnnc2)C(C)(C)c2ccccc21`, the AC50 was 2.59 µM [rising, partial curve] under setting [1] and 6.51 µM [rising, partial curve, poor fit] under setting [2].

In the case of `Fc1ccc(CN2CCCN(Cc3nc(-c4ccc5c(c4)OCO5)no3)CC2)cc1`, the cell number change is -1.37%. On to `O=[N+]([O-])c1cc(C(F)(F)F)ccc1NC1CCN(Cc2ccccc2)C1` (configuration not stated), for which the cell number change turned out to be 9.73%. For the same compound, under setting [2], the AC50 is 4.61 µM [rising, full curve]. Take `CCOC(=O)CNC(=O)CSc1ncnc2c1cnn2-c1ccc(Cl)cc1`: the cell number change is -9.57%. As to `Cc1cc(C)nc(N2CCC(C(=O)NCc3ccccc3F)CC2)n1`, the cell number change was found to be 8.45%. Besides, the concentration at half-maximal activity (AC50) under setting [1] is 0.461 µM [falling, single point]. Also, the AC50 under setting [2] was 0.461 µM [falling, partial curve, poor fit]. With `N#Cc1ccc(CN2CCN(C(=O)CN3C(=O)NC4(CCCC4)C3=O)CC2)cc1`, the cell number change amounted to 127%.

Regarding `COc1ccc(NC(=O)CSc2ncccc2C(=O)OC(C)C)cc1OC`, the cell number change turned out to be 40.6%. Under setting [1], the AC50 was 0.58 µM [rising, full curve]. Also, under setting [2], the AC50 was 7.31 µM [falling, partial curve]. In the case of `CC(C)CCn1c(CN2CCN(C(=O)c3ccco3)CC2)nc2c1c(=O)n(C)c(=O)n2C`, the cell number change amounted to 37.8%. For the same compound, the AC50 under setting [1] was 0.13 µM [rising, full curve]. In addition, the AC50 under setting [2] was 16.4 µM [rising, single point]. As to `CCOC(=O)CSc1nc2ccccc2c(=O)n1C1CCCC1`, the cell number change was -3.57%. The half-maximal activity concentration (AC50) under setting [2] is 5.8 µM [rising, partial curve]. As to `COc1ccc(-n2nc(C(=O)NCC(=O)NCCCN3CC(C)CC(C)C3)c3ccccc3c2=O)cc1` (configuration not stated), the cell number change was determined as 12.6%. In addition, the AC50 under setting [2] is 18.4 µM [rising, partial curve].

In the case of `CC(=O)Nc1ccc(/C(C)=N/NC(=O)CN(c2ccccc2Br)S(C)(=O)=O)cc1`, under setting [1], the AC50 is 0.731 µM [rising, single point]. Turning to `O=C(NC1=NCCS1)C12CC3CC(CC(C3)C1)C2`, the cell number change is -42.8%. Turning to `CC(C)NC(=O)NC(=O)CN1C(=O)NC2(CCc3ccccc3C2)C1=O` (configuration not stated), the cell number change came to 20.8%. For `CCOC(=O)c1[nH]nc2c1C(=O)N(CC)C2=O`, the cell number change is -11.3%. Moreover, the AC50 under setting [2] was 18.4 µM [falling, single point]. Take `CCn1ccnc1CN(C)Cc1cn(-c2ccc(C)cc2)nc1-c1ccc(F)cc1`: the cell number change is -34.2%. The AC50 under setting [1] was 29.1 µM [falling, single point]. Moreover, under setting [2], the AC50 was 1.84 µM [falling, partial curve, poor fit]. For the compound `CC(C)c1ccc(OCc2ccc(C(=O)N3CCCC3)o2)cc1`, the cell number change is -23.8%. The AC50 under setting [2] was 2.06 µM [rising, partial curve]. Take `CC(C)CC(=O)c1c[nH]c(C(=O)N2CCN(Cc3ccccc3)CC2)c1`: the cell number change came out at 37.2%. Under setting [1], the half-maximal activity concentration (AC50) is 6.51 µM [rising, single point]. For the compound `Cc1ccccc1OCC(O)CN1CCC(C)CC1` (configuration not stated), the cell number change is -37%. The AC50 under setting [1] was 6.51 µM [falling, partial curve]. In addition, the AC50 under setting [2] is 4.11 µM [falling, partial curve].

`Cc1ccc(-c2noc(CSc3nnc(Cc4ccccc4)n3-c3cccc(C)c3)n2)cc1`: the cell number change was -14.3%. Further, under setting [2], the AC50 was 1.46 µM [rising, partial curve].

Take `O=S(=O)(Cc1ccc(Cl)cc1)NCc1ccc2c(c1)OCO2`: the cell number change came to 22.2%. On to `Fc1ccc(-c2cn3ccccc3n2)cc1`, for which the cell number change was -8.14%. In addition, the AC50 under setting [2] is 29.1 µM [falling, single point]. `CC(=O)Nc1ccc(NC(=O)C(C)OC(=O)c2cc(S(=O)(=O)N(C)C)ccc2N2CCCC2)cc1` (configuration not stated): the cell number change is -64%. For the same compound, the AC50 under setting [1] is 5.17 µM [falling, single point]. In addition, under setting [2], the AC50 is 16.4 µM [rising, partial curve]. `O=C(NCCc1ccc(Cl)cc1)c1ccc(OCC2CCCO2)cc1` (configuration not stated): the cell number change amounted to 10.8%. In the case of `CCOc1ccc(-n2c(O)c(/C=N/Nc3nnc(C)c(=O)[nH]3)c3ccccc3c2=O)cc1`, the cell number change was -7.78%. In addition, the AC50 under setting [2] was 0.411 µM [falling, full curve].

On to `Clc1ccc(-n2nnnc2-c2ccccc2)cc1Cl`, for which the cell number change came out at 4.15%. Moreover, under setting [2], the AC50 is 32.6 µM [falling, partial curve, poor fit]. Take `CC(=O)c1ccc(N/N=C(/C(N)=O)C2=NC(C)(C)Cc3ccccc32)cc1`: the cell number change is -21.8%. The AC50 under setting [2] was 29.1 µM [falling, single point].

`CCC1(c2ccccc2)NC(=O)N(CC(=O)Nc2ccccc2N2CCCCC2)C1=O` (configuration not stated): the cell number change is -5.52%. Further, the AC50 under setting [2] is 29.1 µM [rising, single point]. Turning to `COc1ccccc1N1CCN(C(=O)COc2cc(C)cc3oc(=O)cc(C)c23)CC1`, under setting [2], the concentration at half-maximal activity (AC50) is 4.61 µM [falling, single point]. Turning to `COc1cc(/C=N/n2c(SC)nnc(C(C)(C)C)c2=O)ccc1O`, the cell number change came to 1.19%. In addition, under setting [2], the half-maximal activity concentration (AC50) is 0.082 µM [falling, full curve, poor fit]. In the case of `COc1ccc(OCC2CCCN(Cc3nc(CC4CC4)no3)C2)cc1` (configuration not stated), the cell number change worked out at 16.1%. For the same compound, under setting [2], the AC50 is 14.6 µM [rising, partial curve, poor fit]. `CCN1CCN(C(C(=O)NC2CCCC2)c2ccc(Cl)cc2)CC1` (configuration not stated): the cell number change came to 40.7%. The AC50 under setting [1] was 20.6 µM [rising, single point]. For the compound `COc1ccc(C(=O)N2CCN(C(=O)c3ccco3)CC2)cc1`, the cell number change was determined as 12.2%. Besides, the AC50 under setting [2] was 6.51 µM [falling, single point]. As to `COc1ccc(CNC(=O)C(=O)NCC2OCCN2C(=O)c2ccc(OC)cc2)cc1` (configuration not stated), the cell number change was determined as 14.7%. Further, the AC50 under setting [1] is 5.8 µM [rising, partial curve]. The AC50 under setting [2] is 4.11 µM [rising, full curve, poor fit]. Take `Cc1ccc(-c2nsc3c(N4CCC(C(N)=O)CC4)ncnc23)cc1`: the cell number change is -95.8%. Further, the AC50 under setting [2] is 18.4 µM [falling, partial curve].

For the compound `O=C1Nc2cc(C(=O)N3CCC(N4CCCCC4)CC3)ccc2S/C1=C\c1ccccc1`, the cell number change was determined as 17%. Further, the AC50 under setting [2] is 10.3 µM [falling, single point]. With `CC1(C)CSC(=NCCc2ccccc2)N1`, under setting [2], the AC50 was 29.1 µM [falling, single point].

On to `COc1ccc(CC(=O)Nc2ccc(S(=O)(=O)Nc3cc(OC)nc(OC)n3)cc2)cc1`, for which the cell number change is 7.56%.

On to `COc1ccc(N2CCN(CCCNC(=O)Cn3c(=O)c4cccn4c4ccccc43)CC2)cc1`, for which the cell number change is -33.6%. Also, under setting [2], the AC50 is 29.1 µM [falling, single point]. As to `CC(=O)Nc1cc(C(=O)c2ccccc2)ccc1N1CCOCC1`, the AC50 under setting [2] was 6.51 µM [rising, single point]. Consider `CN1CCc2c(sc(NC(=O)C3CCCN3S(=O)(=O)c3ccc(Cl)s3)c2C(N)=O)C1` (configuration not stated), for which the cell number change came to 35.7%. For the same compound, the AC50 under setting [1] is 1.16 µM [rising, full curve]. As for `Cc1cccc(C(=O)NC(=S)Nc2ccccc2C(F)(F)F)c1`, the cell number change worked out at 6.35%. For the same compound, the AC50 under setting [2] was 23.1 µM [rising, single point]. As to `Cn1cnc([N+](=O)[O-])c1Sc1nnc(-c2cccnc2)n1C`, the cell number change is -37.5%. Further, the AC50 under setting [1] was 20.6 µM [falling, single point]. Besides, under setting [2], the AC50 is 0.651 µM [falling, full curve, poor fit].

The values above are taken from PubChem BioAssay AID2685 (National Center for Advancing Translational Sciences (NCATS), 2010).
